Laboratory results from patent US10519423B1, “High efficiency reprogramming of fibroblasts into cardiomyocytes” (The Regents of the University of Colorado, a body corporate, priority 2015, dated 2019).
At least one compound was matched to its structure with a doubt left.

System: iCMs
Test: Spontaneous calcium transients in Fura-2 AM-loaded iCMs
Type: cell-based, mouse
Conditions: iCMs on days 10-12, 10 mM nifedipine
Source text: To determine whether iCMs were developing functional excitation-contraction (EC) coupling, we imaged spontaneous calcium transients from Fura-2 AM-loaded iCMs. Spontaneous calcium transients were detected in spontaneously beating cells on days 10-12 (FIGS. 68-71). […] To determine whether iCMs are able to appropriately respond to hormone stimulation, a critical function of normal cardiomyocytes, we measured calcium transients in response to the b-adrenergic agonist isoproterenol (Iso).

Compound: COC(=O)C1=C(C)NC(C)=C(C(=O)OC)C1c1ccccc1[N+](=O)[O-] [nifedipine]
- frequency of calcium transients: significantly decreased
